The subject of this assay is BDF1 mice, Lymphoma 8 ip, survival T/C. Description: NCI In Vivo Anticancer Drug Screen. Data for tumor model Lymphoma 8 (intraperitoneal) in B6D2F1 (BDF1) mice. Particulars: T/C endpoint: survival time, mean or median, schedule: Q01DX010 (ip), vehicle: saline, higher T/C = longer survival. As to the method: The antitumor activity of compounds was measured in mice bearing transplantable tumors. Survival or tumor size were measured and the results are expressed as the measurement made in the treated group (T) divided by the measurement made in the vehicle treated control group (C). The tumor model used in this assay is Lymphoma 8 (intraperitoneal) in B6D2F1 (BDF1) mice

Molecules are shown by their SMILES. The list shows only some results of the screen, not a fair sample: its compounds were picked by chemical class. Not every dose and run of a compound is shown. T/C is the treated group as % of the vehicle group. Where survival is the endpoint, this PubChem deposit counts one and a half times the control or more as active, and values a quarter to a half above the control carry no call in these data; other NCI protocols may use other cut-offs. Schedules are NCI's codes, taken here to give the interval after Q, in days (D) or hours (H), and the number of doses after X.

As to `NC1CCCCC1.O=P(O)(N(CCCl)CCCl)N1CC1`, the T/C reads like this: (dose: 2.5 mg/kg/injection) 121 % of control; (dose: 5.0 mg/kg/injection) 110 % of control; (dose: 10.0 mg/kg/injection) 125 % of control; (dose: 20.0 mg/kg/injection) 271 % of control.

The values are drawn from PubChem BioAssay AID242 (DTP/NCI, 2004).
